# Measurements taken from PubChem BioAssay AID1347076 (National Center for Advancing Translational Sciences (NCATS), 2019).
# In all, about 400,000 compounds went through this assay and about 13,000 (3.2%) were called active. This list was built around the results that the source calls inconclusive (neither active nor inactive); the mix of calls is not that of the screen. The call rests on the fitted dose curve; in most records, active means well fitted cell-killing curve with a large enough effect; inconclusive means small, poorly fitted or top-dose-only effect, or effect the other way; inactive means flat fitted curve, though single readings scatter. Potencies of inconclusive entries are doubtful fits and often do not repeat.
# Experiment: qHTS assay for MDR1-selective chemotherapeutics: Primary screen using the drug-selected MDR subline cells KB-V1; further: nearly all actives have a fitted effect of over 60% in size
# Conditions: KB-V1 MDR cells viability, CellTiter-Glo, 72 h; activity change, negative = cytotoxicity: at 46.1 µM (top of the series)
# Procedure, shortened: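 Drug-selected KB-V1 cells, grown in DMEM lacking phenol red with 10% FBS, receive compound titrations; after three days at 37 degrees C, surviving cell ATP is quantified by CellTiter-Glo luminescence and responses normalized and curve-fitted.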
# On the % scale 0 is the no-effect control and ±100 the full control effect; potency means the concentration at half of the fitted maximal effect.
Structure (SMILES),Potency,"activity change, negative = cytotoxicity"
Cc1ccc(NC(=O)c2ccccc2NS(=O)(=O)c2ccc(Cl)s2)cc1S(=O)(=O)N1CCOCC1,active: 20.6 µM,–
COc1ccc(CCNC(=O)C2CCCN(S(=O)(=O)c3ccc(F)cc3)C2)cc1OC (centres undefined),"inconclusive: 29.1 µM [cytotoxic, single point]",–
CC1(C(=O)NCc2cccc(C(F)(F)F)c2)CCN1Cc1ccc2ccccc2c1 (centres undefined),"inconclusive: 16.4 µM [cytotoxic, partial curve]",–
CCOC(=O)N1CCN(C(=O)c2cc3c(-c4ccc(Cl)cc4)nn(C)c3s2)CC1,"inconclusive: 23.1 µM [cytotoxic, single point]",–
CC1(C)CC(=O)c2c(O)cc(OCC(=O)N3CCN(c4ccc(F)cc4)CC3)cc2O1,"inconclusive: 20.6 µM [cytotoxic, single point]",–
O=C(c1cccc(N2CCCC2=O)c1)N1CCN(c2cccc(Cl)c2)CC1,"inconclusive: 29.1 µM [cytotoxic, single point]",–
COc1ccc(-c2cnn3c4c(c(C)nc23)CCN4C(C)C)cc1OC,active: 2.06 µM,–
COc1ccc(-c2ccc3ccccc3n2)cc1OC,"inconclusive: 29.1 µM [cytotoxic, single point]",–
CC(=O)Nc1cccc(-c2ccnc3c2CC(C)(C(=O)Nc2ccc(F)c(Cl)c2)O3)c1 (centres undefined),active: 20.6 µM,–
O=C(Nc1ccncc1)Nc1ccccn1,"inconclusive: 20.6 µM [rising, single point]",–
O=C(c1ccc2c(=O)n3c(nc2c1)CCC3)N1CCN(S(=O)(=O)c2ccccc2Br)CC1,inactive,–
O=S1(=O)CC(N2CCCC2)CN1Cc1cn(Cc2ccc(Cl)cc2)nn1 (centres undefined),inactive,–
COC(=O)c1c(NC(=O)CN(c2ccccc2)S(C)(=O)=O)sc2c1CCCC2,active: 10.3 µM,–
COCCC(=O)Nc1ccc2c(c1)CN(C(=O)CCOC)CC2,"inconclusive: 20.6 µM [rising, single point]",–
O=C1CC(c2cc3c(cc2Br)OCO3)C2=C(CCCC2=O)N1 (centres undefined),"inconclusive: 29.1 µM [cytotoxic, single point]",–
O=C(Nc1ccc(Cl)cc1)Nc1nc(-c2ccccc2O)cs1,"inconclusive: 32.6 µM [cytotoxic, single point]",–
CC(=O)c1cn(CCOc2cc(C)ccc2C)c2ccccc12,active: 2.06 µM,–
Cc1ccc(C(=O)N2CCCCCC2)cc1S(=O)(=O)N1CCOCC1,inactive,–
CCOC(=O)N1CCN(Cc2nc(N)nc(Nc3ccc(C)cc3C)n2)CC1,"inconclusive: 16.4 µM [cytotoxic, single point]",–
CCn1c(SC/C=C/c2ccccc2)nnc1-c1cccs1,active: 13 µM,–
COc1ccccc1CNC(=O)CCNS(=O)(=O)c1ccc2c(c1)CCCC(=O)N2,inactive,–
COc1ccccc1N1CCN(C(=O)c2ccc(C(C)(C)C)cc2)CC1,"inconclusive: 32.6 µM [cytotoxic, single point]",–
CC1CC(=O)N(CC(=O)N2CCCC2)c2ccccc2S1 (centres undefined),–,inconclusive: -32.7%

Structure (SMILES),Potency,"activity change, negative = cytotoxicity"
CCN(CC)c1nc(C(N)=O)cc(-c2ccccc2)n1,inactive,–
O=[N+]([O-])c1ccccc1/C=N/n1c(-c2cccnc2)n[nH]c1=S,"inconclusive: 23.1 µM [cytotoxic, single point]",–
O=C1CNC(=S)N1CCc1ccc(Cl)cc1,"inconclusive: 2.31 µM [rising, full curve]",–
COc1cc(/C=C/C2=CC(C)(C)NC(=S)N2)cc(OC)c1OC,"inconclusive: 18.4 µM [cytotoxic, partial curve, poor fit]",–
COCCNC(=O)CN(c1cc(C(F)(F)F)ccc1Cl)S(C)(=O)=O,inactive,–
CCC(CC)C(=O)N(C)c1c(C)nc2c(OCC(=O)C(C)(C)C)cccn12,inactive,–
Cc1cc(C)n2nc(C(=O)OCC(=O)c3c[nH]c4ccccc34)nc2n1,inactive,–
CCCN=C1CC(C)(C)CC(=O)/C1=C(/O)CCCN1C(=O)c2ccccc2C1=O,"inconclusive: 2.31 µM [cytotoxic, full curve]",–
Cc1ccc2nsnc2c1S(=O)(=O)N1CCN(CCc2ccccc2)CC1,active: 11.6 µM,–
S=C(c1ccc(N2CCCC2)c(Br)c1)N1CCCCC1,"inconclusive: 23.1 µM [cytotoxic, partial curve]",–
Cc1ccc2c(/C=C/c3c[nH]c4ccccc34)ccnc2c1C,active: 7.31 µM,–
O=C(Cn1cncn1)N/N=C/c1ccccc1Cl,"inconclusive: 29.1 µM [rising, single point]",–
COc1ccc(S(=O)(=O)N(C)[C@H]2C[C@H]3c4cc(-c5ccccc5)ccc4CCN3C(=O)[C@H]2[C@H](C)O)cc1,"inconclusive: 25.9 µM [cytotoxic, partial curve, poor fit]",–
O=C1CC(C(=O)N2CCN(c3ccccc3Cl)CC2)CN1Cc1ccccc1 (centres undefined),"inconclusive: 29.1 µM [cytotoxic, single point]",–
CCCNC(=O)c1nc(C)n(-c2ccc([N+](=O)[O-])cc2)n1,inactive,–
CCn1c(SCC(=O)Nc2cccc(F)c2)nnc1-c1cc2cc(Br)ccc2o1,"inconclusive: 20.6 µM [cytotoxic, partial curve, poor fit]",–
CCc1nc2ccc(C(=O)NCCOc3ccc(OC)cc3)cn2c1N(C)Cc1ccc(OC)cc1,"inconclusive: 25.9 µM [cytotoxic, single point]",–
Cc1ccccc1OCC(=O)NNC(=O)C1CCN(c2ncnc3sc(C)c(C)c23)CC1,"inconclusive: 14.6 µM [cytotoxic, partial curve]",–
O=S(=O)(NCc1cccnc1)c1cccn1-c1ncc(C(F)(F)F)cc1Cl,"inconclusive: 29.1 µM [cytotoxic, single point]",–
CCOC(=O)c1[nH]c2cc(OC)c(OC)cc2c1NC(=O)CN(C)C1CCCCC1,active: 7.31 µM,–
COc1ccc(CN2CCN(Cc3ccccc3C(F)(F)F)CC2)c(OC)c1,"inconclusive: 7.31 µM [cytotoxic, partial curve, poor fit]",–
Cc1ccnc(NC(=S)NC(=O)c2cccs2)c1,"inconclusive: 29.1 µM [cytotoxic, single point]",–
CCN(CC)S(=O)(=O)c1ccc(N2CCCC2)c(NC(=O)c2ccc([N+](=O)[O-])o2)c1,"inconclusive: 23.1 µM [cytotoxic, partial curve, poor fit]",–

# Part of the list above in order of count of non-hydrogen atoms, high to low.
Structure (SMILES),Potency,"activity change, negative = cytotoxicity"
Cc1ccccc1OCC(=O)NNC(=O)C1CCN(c2ncnc3sc(C)c(C)c23)CC1,"inconclusive: 14.6 µM [cytotoxic, partial curve]",–
CCCN=C1CC(C)(C)CC(=O)/C1=C(/O)CCCN1C(=O)c2ccccc2C1=O,"inconclusive: 2.31 µM [cytotoxic, full curve]",–
O=[N+]([O-])c1ccccc1/C=N/n1c(-c2cccnc2)n[nH]c1=S,"inconclusive: 23.1 µM [cytotoxic, single point]",–

# Later entries.

Structure (SMILES),Potency,"activity change, negative = cytotoxicity"
O=C(Nc1cccc(-c2csc(Nc3ccccc3)n2)c1)c1ccccc1,"inconclusive: 25.9 µM [cytotoxic, single point]",–
CCOP(=O)(OCC)C(Nc1ccc([N+](=O)[O-])cc1)c1ccc(Cl)cc1 (centres undefined),"inconclusive: 32.6 µM [cytotoxic, single point]",–
CC1CCN(CCC(=O)Nc2ccc(F)c(F)c2)CC1,"inconclusive: 29.1 µM [rising, single point]",–
O=C(Cn1nc(N2CCN(c3ccccc3)CC2)ccc1=O)Nc1ccc(F)cc1F,"inconclusive: 16.4 µM [rising, partial curve, poor fit]",–
CC(CCc1ccccc1)NC(=O)CCC(=O)N1CCC(C(=O)O)CC1 (centres undefined),inactive,–
O=C(Nc1cccn2ncnc12)C(Cl)Cl,"inconclusive: 23.1 µM [rising, single point]",–
CCN(CC)CCN1C(=O)C(O)=C(C(=O)c2ccc(C)o2)C1c1ccccn1 (centres undefined),"inconclusive: 29.1 µM [rising, single point]",–
COc1ccc(-c2nc(N)sc2C2(O)C(=O)Nc3c(Br)cc(F)cc32)cc1OC (centres undefined),"inconclusive: 18.4 µM [rising, partial curve]",–
CC(=O)N1N=C(c2ccc3nccnc3c2)CC1c1ccccc1 (centres undefined),inactive,–
CSc1ncccc1C(=O)N(C)CC(=O)Nc1ccc(Cl)c(C(F)(F)F)c1,"inconclusive: 20.6 µM [cytotoxic, single point]",–
O=C(C1CCN(c2nc(-c3ccccc3)nc3c2CCC3)CC1)N1CCC(O)CC1,"inconclusive: 20.6 µM [cytotoxic, partial curve, poor fit]",–
COc1ccc(C(=O)NC(Cn2ccnc2)C(C)(C)C)cc1OC1CCN(C(C)C)CC1 (centres undefined),inactive,–
O=C(CCCn1c(=O)c2ccccc2n(CC(=O)Nc2cccc(C(F)(F)F)c2)c1=O)NCc1ccc2c(c1)OCO2,–,inconclusive: -26.2%
O=C(C1=C[C@H](c2ccc(C(F)(F)F)cc2)C[C@H](OCc2ccc(CO)cc2)O1)N1CCCCCCC1,"inconclusive: 32.6 µM [cytotoxic, single point]",–
NC(=S)n1[nH]c(-c2ccc([N+](=O)[O-])cc2)c(N=Nc2cccc([N+](=O)[O-])c2)c1=O,"inconclusive: 25.9 µM [cytotoxic, single point]",–
Cc1cc(N2CCN(C)CC2)nc2ccc(NC(=S)N3CCCCCC3)cc12,inactive,–
Cc1nn(Cc2ccccc2)c(C)c1NC(=O)CSc1nc2sc3c(c2c(=O)n1C)CCC3,"inconclusive: 2.91 µM [cytotoxic, full curve, poor fit]",–
CCOc1ccc(NC(=O)c2ccco2)cc1S(=O)(=O)N1CCCC1,"inconclusive: 18.4 µM [cytotoxic, partial curve, poor fit]",–
COCCn1c(SCC(=O)c2ccc(C)cc2C)nc2cc(C(=O)NC3CCCC3)ccc2c1=O,inactive,–
Nc1ccc(-c2nc3ccc(N)cc3o2)cc1,inactive,–
O=C(CNc1ccccc1OC(F)F)N1CCc2ccccc21,inactive,–
COc1ccc(C(=O)OCC(=O)Nc2nnc(-c3ccccc3)o2)cc1,"inconclusive: 2.31 µM [cytotoxic, partial curve, poor fit]",–
Cc1cc(C(C)(C)C)cc(C)c1C[n+]1ccc2ccccc2c1,inactive,–
